# Percent effect of library compounds

Data taken from ChEMBL document CHEMBL3988442, “University of Dundee, Small-Polar-MMV Screening Library” (2021).

Toxoplasma: 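Assay of Toxoplasma gondii numbers, read through their beta-galactosidase reporter with a colour substrate. Tested at 10 µM. Higher reads as fewer parasites (inferred from which compounds were picked for retests). Of about 67,000 compounds tested this way, about 260 (0.38%) reached 50% or more in at least one test.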
T. brucei: 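Whole-parasite assay of Trypanosoma brucei over 72 hours; the read-out is not stated. Compounds at 30 µM. Direction is inferred from retests: higher values go with stronger inhibition. Values scatter widely below zero; nearly all retest evidence comes from the higher of the two concentrations used. Of about 64,000 compounds tested this way, about 940 (1.5%) reached 50% or more in at least one test.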

The filed quantity is “Percent Effect” (%). The record does not define 0% and 100%; most values in the screen are far below 50% and negative numbers occur (in some assays of this library far below -100). The compounds are a random part of those screened. A dash means the value is not listed here; it may have been measured.

compound,Toxoplasma,T. brucei
CCNC(=O)C1CCCN(C(=O)Nc2ccc3c(c2)CCCN3C)C1 (centres unmarked),-1.941%,-22.9%
O=C(O)C(F)(F)F.[H][C@@]12CCN(C(=O)CC3CC3)C[C@]1(COc1ncccc1F)CCO2,1.98%,-232.3%
CCc1nc(CN(C)C(=O)CSC)no1,-1.443%,12.21%
CN(C)CCNc1cc(-c2ccc[nH]c2=O)c2cc[nH]c2n1,-22.19%,-16.04%
[H][C@]12CCC[C@@]1(COCC1CCOCC1)CN(Cc1nccs1)C2,0.8819%,-26.22%
COc1cc(CNCCc2cnn(C)c2)cc(OC)c1OC,-8.34%,-
Cc1ncccc1OC1(C(=O)NCCc2ccccn2)CCNCC1,7.246%,-26.33%
Cc1cnc(C(=O)N2CCCC(c3c(C)c(=O)nc4n3CCC4)C2)cn1.Cl (centres unmarked),-15.32%,-16.96%
Cc1noc(C)c1CCc1nc(C2CCOC2)no1 (centres unmarked),-8.98%,-30.57%
CCN(C)c1ncnc2c1CCN(Cc1ccsc1)CC2.O=C(O)C(F)(F)F.O=C(O)C(F)(F)F,-0.4025%,12.6%
CC(C)OC(=O)NCc1ccc(NCc2cnn(C(C)(C)C)c2)cc1,21.32%,-12.31%
[H][C@@]12C[C@@H](O)CN1C[C@@H](Cc1ccccc1)N(Cc1cnn(C=C)c1C)C2,-2.462%,-4.764%
CCc1nnc2n1CCN(C(=O)c1cc3cc(C)ccc3[nH]1)C2,-6.647%,-17.57%
CC(C)Oc1cccc(F)c1C(C(=O)O)N1CCCC1 (centres unmarked),20.1%,-54.23%
Cl.c1nnc(Nc2cncc(C3CCCN3)n2)s1 (centres unmarked),12.34%,-8.347%
Cc1ccccc1CS(=O)(=O)CC(=O)N(C)Cc1ccccc1,21.68%,-41.05%
CCOC(=O)C(C)NC(=O)N1CCN(c2nc3ccccc3n2C)CC1 (centres unmarked),16.5%,-2.5%
COCC(NC(=O)NCc1sccc1C)c1ccco1 (centres unmarked),0.6866%,-5.062%
COCc1cc(N(C)Cc2ccccn2)nc(C(C)(C)C)n1,4.843%,-26.44%
Cn1ccnc1CN1CCN(c2ncnc3ccsc23)CC1,15.13%,-3.755%
Cc1csc(Nc2nccnc2C2CCCN2CC(N)=O)n1 (centres unmarked),27.26%,-27.89%
COCC(C)NC(=O)CCCn1cnc2ccccc2c1=O (centres unmarked),3.845%,-37.46%
[H][C@@]12CN(C(=O)CCc3ccccc3)C[C@@]1([H])OCC(=O)N2,-23.09%,-4.94%
O=C(C1=CCCC1)N1CCC2(CC1)CC(Oc1cccnc1)CO2.O=C(O)C(F)(F)F (centres unmarked),2.703%,-1.437%
Cc1cccc(C(C(=O)N2CC(c3ccccn3)C2)N(C)C)c1 (centres unmarked),-1.479%,-0.9271%
O=C(NCCc1ccccc1)c1cccc(S(=O)(=O)NC2CCOC2)c1 (centres unmarked),-6.153%,21.78%
CC(C)[C@]1(O)CN(C(=O)CNC(N)=O)C[C@H]1C,-8.076%,-26.64%
CCCc1nc(C)c(C(=O)Nc2cccc(C)n2)s1,1.597%,-31.84%
CCn1nc(C)c(-c2cncn2CCN(C)C2CCCC2)c1C.Cl,-3.335%,-4.685%
Cc1cc(C)n(CC(C)NC(=O)C2(c3ccccc3F)CC2)n1 (centres unmarked),-16.31%,-24.71%
O=C(O)C(F)(F)F.[H][C@@]12COC[C@]1(CNC(=O)c1ccsc1)CN(Cc1cccs1)C2,1.011%,48.3%
CC(=O)N1CCCCC1c1nc(C)cc(-c2ccccc2C(=O)O)n1 (centres unmarked),-14.08%,-11.79%
CC(C)N1CCC(Nc2ccn(CCC#N)n2)C1=O (centres unmarked),-0.3447%,-15.99%
CCc1csc(CNCC(=O)Nc2ccc(Cl)c(C)c2)n1,9.344%,5.805%
COc1nn(C)c2c1CCCN(C(=O)c1cccs1)C2,-5.02%,-26.15%
CC(=O)Nc1ccc2nc(CN(C)Cc3noc(C)n3)ccc2c1,19.99%,-15.84%
O=C(c1cc(Cn2ccc3ccccc32)[nH]n1)N1CCOCC1,12.98%,-6.334%
Cc1ccc(NC2CCN(C(=O)c3cccn3C)CC2)nn1,5.294%,-1.104%
O=C(Nc1ccnn1Cc1ccccc1Cl)C1CCS(=O)(=O)C1 (centres unmarked),16.25%,-27.89%
NC(=O)c1ccc(NC(=O)N2CCN(c3cccs3)CC2)c(F)c1,-1.28%,-25.72%
CCOC(=O)N1CCN(C(=O)c2cc(-c3ccccc3F)on2)CC1,-4.04%,8.564%

Some entries from above, unchanged:

Cc1ccccc1CS(=O)(=O)CC(=O)N(C)Cc1ccccc1 read Toxoplasma: 21.68%; T. brucei: -41.05%.
CCc1csc(CNCC(=O)Nc2ccc(Cl)c(C)c2)n1 read Toxoplasma: 9.344%; T. brucei: 5.805%.
Cc1cc(C)n(CC(C)NC(=O)C2(c3ccccc3F)CC2)n1 (centres unmarked) read Toxoplasma: -16.31%; T. brucei: -24.71%.
Cn1ccnc1CN1CCN(c2ncnc3ccsc23)CC1 read Toxoplasma: 15.13%; T. brucei: -3.755%.
CCN(C)c1ncnc2c1CCN(Cc1ccsc1)CC2.O=C(O)C(F)(F)F.O=C(O)C(F)(F)F read Toxoplasma: -0.4025%; T. brucei: 12.6%.